# About 330 (0.097%) of roughly 340,000 compounds were called active. The shares of active, inactive and inconclusive entries below differ from those in the screen.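 The calls were made as follows: active = mean replicate inhibition of at least 30% and at least 1% of replicates passing that level; inconclusive = only one of the two criteria is met; inactive = neither criterion is met.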
# System: Voltage-dependent L-type calcium channel subunit alpha-1D (CaV1.3) ICDI/IQ interaction
# Experiment: Disruptors of the CACNA1D IQ motif to Ca2+-dependent inactivation inhibitor domain association, primary screening, Förster resonance energy transfer in intact living cells, one concentration (AID 743397);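 also: 0% = median of the neutral control wells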
# Conditions: HEK cells, CFP/YFP FRET ICDI-IQ, plate reader, 10 min; at 12.3 µM; stronger effect = higher value; percent FRET-ratio fall versus neutral wells
row,Compound,inhibition
1,Cc1onc(NC(=O)c2ccc(Cl)cc2Cl)c1Br,inactive: -4.04%
2,COc1cccc(N2CCN(C(=O)C3CCCN(S(=O)(=O)c4cnc[nH]4)C3)CC2)c1 (stereo not given),active: 46.8%
3,CCOCCCNC(=S)N(CCCN(C)C)Cc1cc2cc3c(cc2[nH]c1=O)OCCO3,inactive: -3.61%
4,Nn1c(SCC(=O)N2CCCC2)nnc1-c1cccs1,active: 32.9%
5,Cc1ccc(NC(=O)C2=CCN(S(=O)(=O)c3ccc(F)cc3)CC2)c(C)c1,inconclusive: 36.9%
6,O=C(N/N=C/c1ccc([N+](=O)[O-])cc1)c1cc(-c2ccc3c(c2)OCO3)n[nH]1,inactive: 9.4%
7,CCOc1ccc(NC(=O)CN(C)C(=O)CCCNC(=O)c2ccc(Cl)cc2)cc1OCC,active: 32.4%
8,COc1ccc(C(C)=O)cc1Cn1c(C)c(C(=O)NCc2ccc3c(c2)OCO3)sc1=O,inconclusive: 36.2%
9,C(=C\c1ccccc1)/C=N/Nc1nc2ccccc2[nH]1,inconclusive: 46.5%
10,Cc1cc(OCCn2cncn2)ccc1[N+](=O)[O-],inconclusive: 34.5%
11,NNC(=O)c1ccc(Cn2cc(Cl)cn2)o1,inconclusive: 51.9%
12,Nc1nc(-c2ccc3c(c2)CCC(=O)N3)cs1,inconclusive: 34.8%
13,CCOC(=O)Cn1c(=O)oc2cc(S(=O)(=O)NC3CCCc4ccccc43)ccc21 (stereo not given),inactive: -5.4%
14,CCN(CC)c1ccc2ccc(=O)oc2c1,inconclusive: 41.5%
15,O=c1oc2c(O)cccc2cc1-c1nc2ccccc2[nH]1,active: 33.7%
16,Cc1cc2oc(=O)cc(CN3CCC(C)CC3)c2c(C)c1Cl,inconclusive: 32.1%
17,CCN(CCCNC(=O)C1CCCN(S(=O)(=O)c2cnc[nH]2)C1)c1ccccc1 (stereo not given),inconclusive: 37.2%
18,Oc1ccc(C[C@@H]2CNC(=S)N2CCCCC2CCCCC2)cc1,inconclusive: 36.8%
19,COc1ccc2[nH]c(=O)c(CN(C(=O)C3CCCO3)c3ccc(C)c(C)c3)cc2c1 (stereo not given),inactive: -6.83%
20,Nc1c(C(=O)NCCc2ccccc2)nnn1Cc1ccc(Cl)cc1,inconclusive: 35.4%
21,O=C(CN(c1cccc(Cl)c1)S(=O)(=O)c1ccccc1)NN=C1CCCC1,inconclusive: 90.3%
22,COc1ccc(OC)c(NC(=O)CS(=O)(=O)Cc2nc(-c3ccccc3C)oc2C)c1,inconclusive: 31.4%
23,O=C1CCC[C@@H]2Cc3[nH]c4c(Cl)ccc(Cl)c4c3[C@@H]3CCN1[C@H]23,inconclusive: 31.2%
24,COc1ccc(C[C@H]2CN3C(=NC[C@@H]3Cc3ccccc3)N2CCNC(=O)CCC2CCCCC2)cc1,active: 65.4%
25,NC(=O)c1ccsc1NC(=O)COC(=O)CCOc1ccccc1,inactive: -17.8%
26,O=C(CNCc1ccccc1)NC1C2CC3CC(C2)CC1C3 (stereo not given),inconclusive: 38.2%
27,CCOC(=O)c1cc(CC)sc1NC(=O)CC1Sc2ccc(C(F)(F)F)cc2NC1=O (stereo not given),inactive: -4.4%
28,Cc1c(C(=O)NCCC#N)sc(=O)n1Cc1ccccc1F,inconclusive: 44.8%

row,Compound,inhibition
1,CCN1CCN(Cc2ccc(NC(=O)c3ccc(C)c(NC(=O)c4c[nH]c5cc(C(F)(F)F)ccc5c4=O)c3)cc2C(F)(F)F)CC1,inconclusive: 31.3%
2,COc1ccc(CCn2c(C3CCCCC3)nc3c(c(=O)c4ccccc4n3C)c2=O)cc1OC,inconclusive: 41.7%
3,CC(NC(=O)c1cccc(S(=O)(=O)N2CCN(Cc3ccccc3)CC2)c1)c1ccc(Br)cc1 (stereo not given),inactive: -9.1%
4,COc1ccccc1C(=O)OCC(=O)NC(=O)NCc1ccccc1,inconclusive: 35.1%
5,CCCC(=O)Nc1ccc(NC(=O)c2cccc(OC)c2)cn1,inconclusive: 37.8%
6,COc1ccc2[nH]cc(CCNC(=O)Cc3ccc(Br)cc3)c2c1,inconclusive: 38.5%
7,CCOC(=O)c1sc(NC(=O)CSc2nc3c(c(=O)n2-c2ccc(C)cc2)SCC3)c(C(=O)OCC)c1C,inconclusive: 30%
8,Cc1c(C(=O)NCc2ccc(F)cc2)sc(=O)n1Cc1ccccc1F,inconclusive: 46.9%
9,COc1ccccc1C1C2=C(CC(C)(C)CC2=O)N(CC(=O)O)C2=C1C(=O)CC(C)(C)C2,active: 35.6%
10,Cc1ccc(C(=O)N(Cc2nc3ccccc3c(=O)[nH]2)C2CCCC2)cc1,inconclusive: 33.9%
11,CCOc1ccc(C2NC(=O)NC(C)=C2C(=O)OCc2ccccc2)cc1 (stereo not given),inconclusive: 42%
12,Cc1ccc(S(=O)(=O)Nc2ccc(C(=O)NCCCn3ccnc3)cc2)cc1[N+](=O)[O-],inactive: -7.01%
13,Cc1cccn2c(=O)c3cc(C(=O)NCCN4CCOCC4)c(=N)n(CCc4ccccc4)c3nc12,active: 34.3%
14,C[C@@H](CC#N)CN1CC[C@H](C(C)(C)C)CCC1=O,active: 33.5%
15,COC(=O)C1=CN(Cc2ccc(OC)c(OC)c2)C=C(C(=O)OC)C1c1cccc(F)c1,active: 79%
16,Cc1ccc(SC[C@H](C)CN2CC[C@H](NC(=O)OCc3ccccc3)CCC2=O)cc1,inconclusive: 34.6%
17,Cc1[nH]c2ccccc2c1C(=O)C(C)OC(=O)c1ccc(Cl)nc1 (stereo not given),inactive: -7.26%
18,CC(=O)Oc1ccc2cc(-c3nc4ccccc4n3C)c(=O)oc2c1,active: 33%
19,[O-]/[N+](=C/c1ccccc1)c1ccccc1,active: 45.5%
20,CCOC(=O)N1CCC(N2C(=O)c3ccccc3C2Nc2cc(OC)c(OC)c(OC)c2)CC1 (stereo not given),inconclusive: 40%
21,O=C(CSc1ccccc1C(=O)O)NCc1ccccc1,inactive: 10.3%
22,COC(=O)c1cc(=O)n(Cc2ccc3c(c2)OCO3)c(=Nc2ccc(F)c(Cl)c2)s1,active: 37.5%
24,COc1cc(CN2C(=O)C(Cc3ccccc3)ON=C2c2ncccc2C)cc(OC)c1 (stereo not given),inconclusive: 36.4%
25,CC1CCN(S(=O)(=O)N2CCC(C(=O)NC3CCCC3)CC2)CC1,active: 76.2%
26,CCOc1ccc(NC(=S)N(CCN2CCOCC2)Cc2ccc3c(c2)CCCN3CC)cc1,inconclusive: 32.4%
27,CC(CCc1ccco1)NC(=O)Cn1nc(Cc2ccncc2)c2ccccc2c1=O (stereo not given),inconclusive: 33.8%

# Some of these compounds in order of heavy-atom count, descending.
row,Compound,inhibition
1,CCN1CCN(Cc2ccc(NC(=O)c3ccc(C)c(NC(=O)c4c[nH]c5cc(C(F)(F)F)ccc5c4=O)c3)cc2C(F)(F)F)CC1,inconclusive: 31.3%
7,CCOC(=O)c1sc(NC(=O)CSc2nc3c(c(=O)n2-c2ccc(C)cc2)SCC3)c(C(=O)OCC)c1C,inconclusive: 30%
13,Cc1cccn2c(=O)c3cc(C(=O)NCCN4CCOCC4)c(=N)n(CCc4ccccc4)c3nc12,active: 34.3%
2,COc1ccc(CCn2c(C3CCCCC3)nc3c(c(=O)c4ccccc4n3C)c2=O)cc1OC,inconclusive: 41.7%
3,CC(NC(=O)c1cccc(S(=O)(=O)N2CCN(Cc3ccccc3)CC2)c1)c1ccc(Br)cc1 (stereo not given),inactive: -9.1%
24,COc1cc(CN2C(=O)C(Cc3ccccc3)ON=C2c2ncccc2C)cc(OC)c1 (stereo not given),inconclusive: 36.4%
12,Cc1ccc(S(=O)(=O)Nc2ccc(C(=O)NCCCn3ccnc3)cc2)cc1[N+](=O)[O-],inactive: -7.01%
22,COC(=O)c1cc(=O)n(Cc2ccc3c(c2)OCO3)c(=Nc2ccc(F)c(Cl)c2)s1,active: 37.5%
11,CCOc1ccc(C2NC(=O)NC(C)=C2C(=O)OCc2ccccc2)cc1 (stereo not given),inconclusive: 42%
8,Cc1c(C(=O)NCc2ccc(F)cc2)sc(=O)n1Cc1ccccc1F,inconclusive: 46.9%
18,CC(=O)Oc1ccc2cc(-c3nc4ccccc4n3C)c(=O)oc2c1,active: 33%
6,COc1ccc2[nH]cc(CCNC(=O)Cc3ccc(Br)cc3)c2c1,inconclusive: 38.5%
5,CCCC(=O)Nc1ccc(NC(=O)c2cccc(OC)c2)cn1,inconclusive: 37.8%
21,O=C(CSc1ccccc1C(=O)O)NCc1ccccc1,inactive: 10.3%
14,C[C@@H](CC#N)CN1CC[C@H](C(C)(C)C)CCC1=O,active: 33.5%
19,[O-]/[N+](=C/c1ccccc1)c1ccccc1,active: 45.5%

# Reference: PubChem BioAssay AID743397 (Broad Institute, 2014)
